# Library screen at single concentrations

The chains behind the UniProt entries cited, without tags or fusion partners. Residues count along the entry.
UniProt A4I591, 1-473: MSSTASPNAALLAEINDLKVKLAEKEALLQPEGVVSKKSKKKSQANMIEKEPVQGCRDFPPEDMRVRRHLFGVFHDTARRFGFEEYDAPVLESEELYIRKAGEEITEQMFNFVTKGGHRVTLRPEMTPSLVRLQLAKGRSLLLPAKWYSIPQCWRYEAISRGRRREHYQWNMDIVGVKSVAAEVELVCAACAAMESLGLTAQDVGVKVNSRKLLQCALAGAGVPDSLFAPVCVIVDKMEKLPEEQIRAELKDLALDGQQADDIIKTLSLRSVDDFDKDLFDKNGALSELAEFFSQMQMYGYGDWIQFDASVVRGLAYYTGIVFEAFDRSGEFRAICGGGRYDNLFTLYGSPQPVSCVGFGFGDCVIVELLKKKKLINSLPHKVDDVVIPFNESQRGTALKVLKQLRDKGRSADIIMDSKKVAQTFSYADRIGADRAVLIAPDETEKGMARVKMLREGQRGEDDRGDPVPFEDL

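Enzyme assay of histidyl-tRNA synthetase; the read-out is not stated. Target: Histidine-tRNA ligase, Leishmania infantum (UniProt A4I591). Compounds at 30 µM. Direction is inferred from retests: higher values go with stronger inhibition. The assay is labelled LdHisRS but filed under L. infantum. Of about 69,000 compounds tested this way, about 410 (0.6%) reached 50% or more in at least one test.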

Values are the deposited “Percent Effect”, in %.
The record does not define 0% and 100%; most values in the screen are far below 50% and negative numbers occur (in some assays of this library far below -100).
The compounds are a random part of those screened.

structure	Percent Effect
COc1nccnc1N1CCC2(CC1)C(=O)N(C)c1ccccc12	12.05
COc1cccc(OC2CN(C(=O)CCn3cnnn3)C2)c1	20
COCCNc1ccc(CNC(=O)C2COc3ccccc32)cc1 (stereo not given)	15.05
CCn1nc(C)c(NC(=O)CN2CCC(c3ccccc3Cl)C2)c1C (stereo not given)	0
CNC(=O)c1cn2cc(-c3ccccc3Cl)n(CC=C(C)C)c(=O)c2n1	48.89
CS(=O)(=O)N1CCCN(c2nccn3cnnc23)CC1	12.05
O=C(CN1CCOCC1)Nc1cc(C(F)(F)F)ccc1-n1cccc1	6.25
Cc1ccc(CN(C)C(=O)NCC(C)(C)S(C)(=O)=O)s1	-2.857
CC[C@@H]1N(Cc2ccncc2)CCC[C@]12CCC(=O)N2CCOC	8.333
COCc1c(C(=O)O)nnn1Cc1cccc(C(F)(F)F)c1	15.53
Cc1cc(N2CCc3c(ncn3C3CC3)C2)nc(N)n1	25
COc1cc2c(cc1CN1C[C@@H](CN3CCOCC3)[C@@H](CO)C1)CCC2	28.36
Cc1ccc(CN(C)C(=O)CN2CC(n3cccn3)C2)o1	0
CC(C)CN1CCC(C(=O)NCCNC(=O)c2ccco2)CC1	22.37
O=C(OCc1ccccc1)N1CC[C@H]2CC(CO)O[C@@H]2C1 (stereo not given in full)	-4
Cn1ccc2ccnc(CC3CN(C(=O)c4cscn4)C3)c21	6
CN1C[C@@H](NC(=O)CC(C)(C)C)C[C@H]1c1nc(-c2cnccn2)no1	16.22
Cc1ccccc1CC(=O)N1CCCn2cncc2C1	11.48
CN1CCCC(c2cccc(CCC(=O)NCC3(C)COC3)n2)C1 (stereo not given)	8.247
CC(NC(=O)CCC1CCCCC1)c1nnc2n1CCC2 (stereo not given)	1.923
Cc1noc(C2CCCN(CC(=O)N3CCc4ccccc4C3)C2)n1 (stereo not given)	-1.613
COc1ccccc1NC(=O)NCC(O)(c1ccccc1)C1CC1 (stereo not given)	9.615
Cc1cc2cccc(C(=O)N3CC[C@@H](N)[C@H](O)C3)c2o1	-2.5
O=C(NCCc1nc(-c2cccnc2)no1)c1ccc(C2CCCO2)s1 (stereo not given)	18.18
COc1ccc(CN2CC[C@H]3[C@H](CO[C@H]3CNC(=O)N(C)C)C2)cc1	16.22
Cc1cn(-c2ccccc2)nc1NS(=O)(=O)c1ccc(C(=O)O)cc1	13.25
c1cc(COC[C@]23COC[C@H]2CN(Cc2ccsc2)C3)ccn1	10.09
O=C(O)c1cncc(Cc2cccc(F)c2)c1	11.35
CC(NC(=O)CCn1cccn1)c1ccc2c(c1)OCCO2 (stereo not given)	13.91
COC(=O)c1cccc(S(=O)(=O)Nc2ccc(F)c(C(N)=O)c2)c1	6.667
CC(C)[C@H](NC(=O)NC1CCS(=O)(=O)C1)C(=O)NCc1ccc(Cl)cc1 (stereo not given in full)	10.53
COCC1CC2(CCN(C(=O)c3cc(C)oc3C)CC2)CN1C(C)C (stereo not given)	15.38
CC(C)c1noc(CN(Cc2cccnc2)C2CN3CCC2CC3)n1 (stereo not given)	12.9
Cc1cnn(CC(=O)N2CCCN(c3nc(C)cs3)CC2)c1	18.64
COc1cccc2c1OCC(NC(=O)NC1CCN(C3CC3)CC1)C2 (stereo not given)	20
Cc1cccc(C(=O)NCC(O)c2ccc(F)cc2F)c1 (stereo not given)	25
Cc1nccnc1C1CCN(C2CCCC2O)CC1 (stereo not given)	19.86
N#Cc1cccc(C(=O)N2CC(c3nc(-c4ccc[nH]c4=O)no3)C2)c1	5.217
CCn1cc(CN2CCCN(C(=O)c3cccc(C#N)c3)CC2)cn1	11.86
N#Cc1nccnc1N1CCC(c2nc(C(F)(F)F)c[nH]2)CC1	8.333
CN(Cc1nc(Cc2cccc(C(F)(F)F)c2)no1)CC1CCCCO1 (stereo not given)	4.196
Cc1nc(N2CCN(C)CC2)ncc1C(=O)N1CCC(O)(CO)CC1	22.64
CCCN1CCCC2(CCN(Cc3cncn3C3CCCC3)C2)C1=O (stereo not given)	14.17
COc1ccc(Br)cc1CCC(=O)N1CCCC1	9.859
Cc1ccc(OCC2CCCN(C(=O)CCn3ccccc3=O)C2)cc1 (stereo not given)	4.918
O=C(C1CC=CC1)N1C[C@@H](OCc2cccnc2)[C@H]2OCCC[C@H]21	20
COc1cccc(-c2nc(CNCc3cccnc3)cs2)c1	17.05
Cc1cnc(C)c(N2CCC(C(=O)O)(n3ccc(C(C)(C)C)n3)CC2)n1	1.235
COc1ccc(CNC(c2cccc(F)c2)c2cnn(C)c2)cc1 (stereo not given)	2.521
O=C(NCCCn1cccn1)c1csc2c1CCCC2	16.44
Cn1cc(CN2CCC3(CC2)CC(Nc2nccs2)CO3)cn1 (stereo not given)	18
CC(C)c1noc(CC[C@@H]2CCCN3CCCC[C@H]23)n1	9.677
O=C(O)c1ccc(S(=O)(=O)Nc2c(F)cccc2-n2cccn2)cc1	16.96
Cn1ccnc1CC1CCCN(C(=O)Nc2cccn(C)c2=O)C1 (stereo not given)	17.31
NS(=O)(=O)CCCC(=O)N1CCC2(CC1)c1ccccc1CC2O (stereo not given)	10.4
c1ccc(Cn2ccnc2CNC2CCCOc3ccccc32)cc1 (stereo not given)	5.983
O=C([C@H]1CCCO1)N1CC[C@H](O)[C@@H]1Cc1cccnc1	4.545
Cc1ccc(Cl)c(NC(=O)c2cccc(CN3CC[C@H](O)C3)c2)c1	17.5
O=C(CN1CCN(c2ccnc3c(F)ccc(F)c23)CC1)NC1CC1	15.87
COc1ncccc1CNC(=O)c1cccnc1O	2.128
COCCc1nnc(NC(=O)Cc2ccccc2Cl)o1	25.97
CC(C)CN(C)c1ccc(C(=O)N2CCCC2c2cnn(C)c2)cn1 (stereo not given)	25.76
CC(C)CN1CCN(Cc2nc3c(s2)CCCC3)[C@H]2CS(=O)(=O)C[C@H]21	35.21
CC(NC(=O)N1CCSC(C)(C)C1)c1noc(-c2ccccc2)n1 (stereo not given)	18.42
Cc1cc(C)nc(C2CCN(C(=O)c3cncnc3C)C2)n1 (stereo not given)	11.58
CC(=O)N1CCC(N2CCC(c3nc(C)cc(C)n3)C2)CC1 (stereo not given)	12.77
COc1ccc2c(c1)OCC(CNC(=O)NC(C)(C)C)C2 (stereo not given)	20.78
COCCN(Cc1sccc1C)Cc1nccn1CCOC	2.083
FC(F)(F)C1CN(Cc2cccc(OCc3ccccn3)c2)CCO1 (stereo not given)	10.87
O=C(Cc1cccnc1)N1CC(Cc2nccc3cc[nH]c23)C1	5.674
CC(C)(C)N1CC(C(=O)N2CCN(CCn3cccc3)CC2)CC1=O (stereo not given)	12.62
Cc1nnc(C(NS(=O)(=O)c2cc(F)c(C)cc2F)C(C)C)[nH]1 (stereo not given)	17.12
Cc1nccn1CCCC(=O)N1CCN(c2cccnc2)CC1	14
CN1CCN(C2CCN(CC(O)c3ccccc3)CC2)C1=O (stereo not given)	14.94
Cn1cc(C(O)CNC(=O)c2ccc(F)cc2Cl)cn1 (stereo not given)	19.57
COc1cc(F)c(NC(=O)N(C)Cc2cc(C)on2)cc1F	2.703
CCN1CC(=O)c2sc(NC(C)C)nc2C1	28.57
CNC(=O)C1CCCN(C(=O)c2ccccc2-n2cc(CN)cn2)C1 (stereo not given)	8.451
O=C1NCCCCC1NC(=O)C1(c2cccc(Cl)c2)CC1 (stereo not given)	16.13
COCC(=O)NCCCn1ncc2c(C)cccc21	17.24
CN(C)CCCN(Cc1ccco1)Cc1ccnn1C1CCCCO1 (stereo not given)	12.77
O=C(CCCc1cn[nH]c1)N1C[C@H](CO)C[C@H](CN2CCCC2)C1	2.151
Cc1nn(CC(=O)Nc2ccon2)cc1Br	1.235
O=C(Nc1nncs1)c1ccc(O)nc1	15.49

5 of the entries, repeated:

structure	Percent Effect
COCCNc1ccc(CNC(=O)C2COc3ccccc32)cc1 (stereo not given)	15.05
O=C([C@H]1CCCO1)N1CC[C@H](O)[C@@H]1Cc1cccnc1	4.545
CC(C)(C)N1CC(C(=O)N2CCN(CCn3cccc3)CC2)CC1=O (stereo not given)	12.62
CN1C[C@@H](NC(=O)CC(C)(C)C)C[C@H]1c1nc(-c2cnccn2)no1	16.22
Cc1ccc(CN(C)C(=O)NCC(C)(C)S(C)(=O)=O)s1	-2.857

Data taken from ChEMBL document CHEMBL3988442, “University of Dundee, Small-Polar-MMV Screening Library” (2021).